According to patent US11739297B2, “Method of increasing tumor killing activity of macrophages or monocytes comprising chimeric antigen receptor” (Carisma Therapeutics Inc., priority 2020, dated 2023):
“Also recorded” adds a separate entry of the source. For at least one compound, name, drawing or mass did not settle the structure.

How the values were obtained:
[1] = tested on: CRL2351 breast cancer cell; assay: Cancer cell killing by sunitinib pre-treated CAR macrophages; type: cell-based, human; conditions: 1 nM pre-treatment; 48 hour assay
human macrophages = assay: mCherry mRNA expression in transfected macrophages (Incucyte); type: cell-based
Protocol: Human macrophages were transfected with mCherry mRNA comprising m6AGCap1 and PsU or N1mPsU modifications and were then cultured for one day with different doses of IFN-γ. mCherry expression was monitored on an Incucyte® live imaging microscope.
In order to determine whether an RNaseL inhibitor could rescue IFN-γ-induced instability of transfected mRNA, human macrophages were treated with 1 μM sunitinib (an RNaseL inhibitor) two hours prior to the transfection of mCherry mRNA comprising m6AGCap1 and PsU modifications. Transfected cells were then cultured for one day with different dosages of IFN-γ. mCherry expression was monitored on an Incucyte® live imaging microscope.
The effect of another RNaseL inhibitor (RLI or ABCE1) was also tested to further validate the concept. Human macrophages were co-transfected with mRNA encoding mCherry comprising m6AGCap 1 and PsU modifications and with mRNA encoding ABCE1.

## CCN(CC)CCNC(=O)c1c(C)[nH]c(/C=C2\C(=O)Nc3ccc(F)cc32)c1C [sunitinib]
[1]
  cancer cell killing by pre-treated CAR macrophages: higher cancer cell killing than CAR macrophages not pre-treated with sunitinib; also recorded: improved cancer killing ability
Human macrophages
  mCherry expression, pre-treatment added to ABCE1 co-transfection: further enhanced this effect
Human macrophages; 1 μM two hours prior to transfection
  mCherry expression under IFN-γ: rescued the IFN-γ-induced degradation of mRNA
